Results from paper PMC7140707.
These are yes or no findings as the source states them, for the method shown. Binding seen in cells or lysates may run through a third protein. These calls come from enrichment with a bait or labelling near it, and not all partners need be listed. Where a sequence is shown, tags or fusion partners need not be part of it.

T1: His6-Gis1 (yeast (S. cerevisiae)) (UniProt Q03833)
T1 sequence: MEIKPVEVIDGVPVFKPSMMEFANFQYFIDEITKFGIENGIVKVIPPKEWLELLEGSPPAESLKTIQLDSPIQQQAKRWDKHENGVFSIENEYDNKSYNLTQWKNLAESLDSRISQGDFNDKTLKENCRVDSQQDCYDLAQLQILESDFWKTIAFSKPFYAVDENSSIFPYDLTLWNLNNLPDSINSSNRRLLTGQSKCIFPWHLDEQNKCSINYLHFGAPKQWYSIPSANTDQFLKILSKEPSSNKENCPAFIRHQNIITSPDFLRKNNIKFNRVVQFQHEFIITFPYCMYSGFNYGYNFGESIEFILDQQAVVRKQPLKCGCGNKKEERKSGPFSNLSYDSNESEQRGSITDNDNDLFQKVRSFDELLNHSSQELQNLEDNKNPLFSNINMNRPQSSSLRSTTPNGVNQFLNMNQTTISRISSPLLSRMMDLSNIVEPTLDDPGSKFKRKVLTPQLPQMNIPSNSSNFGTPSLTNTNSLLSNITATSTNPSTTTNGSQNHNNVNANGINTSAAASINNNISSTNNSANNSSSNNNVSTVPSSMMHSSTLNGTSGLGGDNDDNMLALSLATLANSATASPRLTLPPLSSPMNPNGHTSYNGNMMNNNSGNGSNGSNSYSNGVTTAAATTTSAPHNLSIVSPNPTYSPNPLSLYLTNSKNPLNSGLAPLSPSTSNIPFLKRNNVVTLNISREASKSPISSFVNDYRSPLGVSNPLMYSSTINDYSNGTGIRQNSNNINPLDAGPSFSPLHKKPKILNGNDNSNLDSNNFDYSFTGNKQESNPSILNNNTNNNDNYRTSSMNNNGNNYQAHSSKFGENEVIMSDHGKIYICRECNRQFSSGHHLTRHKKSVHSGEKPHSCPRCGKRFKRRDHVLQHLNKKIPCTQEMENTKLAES

B1: IST2 (protein, UniProt P38250 1-946)
chain: MSQTITSLDPNCVIVFNKTSSANEKSLNVEFKRLNIHSIIEPGHDLQTSYAFIRIHQDNAKPLFSFLQNLDFIESIIPYHDTELSDDLHKLISISKSKILEAPKQYELYNLSNLTNNPKQSLYFAFLQNYIKWLIPFSFFGLSIRFLSNFTYEFNSTYSLFAILWTLSFTAFWLYKYEPFWSDRLSKYSSFSTIEFLQDKQKAQKKASSVIMLKKCCFIPVALLFGAILLSFQLYCFALEIFIKQIYNGPMISILSFLPTILICTFTPVLTVIYNKYFVEPMTKWENHSSVVNAKKSKEAKNFVIIFLSSYVPLLITLFLYLPMGHLLTAEIRTKVFNAFSILARLPTHDSDFIIDTKRYEDQFFYFIVINQLIQFSMENFVPSLVSIAQQKINGPNPNFVKAESEIGKAQLSSSDMKIWSKVKSYQTDPWGATFDLDANFKKLLLQFGYLVMFSTIWPLAPFICLIVNLIVYQVDLRKAVLYSKPEYFPFPIYDKPSSVSNTQKLTVGLWNSVLVMFSILGCVITATLTYMYQSCNIPGVGAHTSIHTNKAWYLANPINHSWINIVLYAVFIEHVSVAIFFLFSSILKSSHDDVANGIVPKHVVNVQNPPKQEVFEKIPSPEFNSNNEKELVQRKGSANEKLHQELGEKQPASSANGYEAHAATHANNDPSSLSSASSPSLSSSSSSSKTGVVKAVDNDTAGSAGKKPLATESTEKRNSLVKVPTVGSYGVAGATLPETIPTSKNYYLRFDEDGKSIRDAKSSAESSNATNNNTLGTESKLLPDGDAVDALSRKIDQIPKIAVTGGENNENTQAKDDAATKTPLIKDANIKPVVNAAVNDNQSKVSVATEQTKKTEVSTKNGPSRSISTKETKDSARPSNNNTTTTTTTDATQPHHHHHHHRHRDAGVKNVTNNSKTTESSSSSSAAKEKPKHKKGLLHKLKKKL
B2: MOT3 (protein, UniProt P54785 1-490)
chain: MNADHHLQQQQQQRQQHQQQQHQQQQHQHQHQQQQHTILQNVSNTNNIGSDSLASQPFNTTTVSSNKDDVMVNSGARELPMPLHQQQYIYPYYQYTSNNSNNNNVTAGNNMSASPIVHNNSNNSNNSNISASDYTVANNSTSNNNNNNNNNNNNNNNIHPNQFTAAANMNSNAAAAAYYSFPTANMPIPQQDQQYMFNPASYISHYYSAVNSNNNGNNAANNGSNNSSHSAPAPAPGPPHHHHHHSNTHNNLNNGGAVNTNNAPQHHPTIITDQFQFQLQQNPSPNLNLNINPAQPLHLPPGWKINTMPQPRPTTAPNHPPAPVPSSNPVASNLVPAPSSDHKYIHQCQFCEKSFKRKSWLKRHLLSHSQQRHFLCPWCLSRQKRKDNLLQHMKLKHTNYLLDELKKNNIIFNYNNSSSSNNNNDNNNNNNSNSASGSGGAGAAAAAATAPENEDGNGYDTNIKTLINDGVLNKDDVKRVLNNLIVSHNK
B3: NMA1 (protein, UniProt Q06178 1-401)
chain: MDPTRAPDFKPPSADEELIPPPDPESKIPKSIPIIPYVLADANSSIDAPFNIKRKKKHPKHHHHHHHSRKEGNDKKHQHIPLNQDDFQPLSAEVSSEDDDADFRSKERYGSDSTTESETRGVQKYQIADLEEVPHGIVRQARTLEDYEFPSHRLSKKLLDPNKLPLVIVACGSFSPITYLHLRMFEMALDAISEQTRFEVIGGYYSPVSDNYQKQGLAPSYHRVRMCELACERTSSWLMVDAWESLQPSYTRTAKVLDHFNHEINIKRGGVATVTGEKIGVKIMLLAGGDLIESMGEPNVWADADLHHILGNYGCLIVERTGSDVRSFLLSHDIMYEHRRNILIIKQLIYNDISSTKVRLFIRRAMSVQYLLPNSVIRYIQEHRLYVDQTEPVKQVLGNKE
B4: NMA2 (protein, UniProt P53204 1-395)
chain: MDPTKAPDFKPPQPNEELQPPPDPTHTIPKSGPIVPYVLADYNSSIDAPFNLDIYKTLSSRKKNANSSNRMDHIPLNTSDFQPLSRDVSSEEESEGQSNGIDATLQDVTMTGNLGVLKSQIADLEEVPHTIVRQARTIEDYEFPVHRLTKKLQDPEKLPLIIVACGSFSPITYLHLRMFEMALDDINEQTRFEVVGGYFSPVSDNYQKRGLAPAYHRVRMCELACERTSSWLMVDAWESLQSSYTRTAKVLDHFNHEINIKRGGIMTVDGEKMGVKIMLLAGGDLIESMGEPHVWADSDLHHILGNYGCLIVERTGSDVRSFLLSHDIMYEHRRNILIIKQLIYNDISSTKVRLFIRRGMSVQYLLPNSVIRYIQEYNLYINQSEPVKQVLDSKE
B5: OLE1 (protein, UniProt P21147 1-510)
chain: MPTSGTTIELIDDQFPKDDSASSGIVDEVDLTEANILATGLNKKAPRIVNGFGSLMGSKEMVSVEFDKKGNEKKSNLDRLLEKDNQEKEEAKTKIHISEQPWTLNNWHQHLNWLNMVLVCGMPMIGWYFALSGKVPLHLNVFLFSVFYYAVGGVSITAGYHRLWSHRSYSAHWPLRLFYAIFGCASVEGSAKWWGHSHRIHHRYTDTLRDPYDARRGLWYSHMGWMLLKPNPKYKARADITDMTDDWTIRFQHRHYILLMLLTAFVIPTLICGYFFNDYMGGLIYAGFIRVFVIQQATFCINSLAHYIGTQPFDDRRTPRDNWITAIVTFGEGYHNFHHEFPTDYRNAIKWYQYDPTKVIIYLTSLVGLAYDLKKFSQNAIEEALIQQEQKKINKKKAKINWGPVLTDLPMWDKQTFLAKSKENKGLVIISGIVHDVSGYISEHPGGETLIKTALGKDATKAFSGGVYRHSNAAQNVLADMRVAVIKESKNSAIRMASKRGEIYETGKFF
B6: ERG6 (protein, UniProt P25087 1-383)
chain: MSETELRKRQAQFTRELHGDDIGKKTGLSALMSKNNSAQKEAVQKYLRNWDGRTDKDAEERRLEDYNEATHSYYNVVTDFYEYGWGSSFHFSRFYKGESFAASIARHEHYLAYKAGIQRGDLVLDVGCGVGGPAREIARFTGCNVIGLNNNDYQIAKAKYYAKKYNLSDQMDFVKGDFMKMDFEENTFDKVYAIEATCHAPKLEGVYSEIYKVLKPGGTFAVYEWVMTDKYDENNPEHRKIAYEIELGDGIPKMFHVDVARKALKNCGFEVLVSEDLADNDDEIPWYYPLTGEWKYVQNLANLATFFRTSYLGRQFTTAMVTVMEKLGLAPEGSKEVTAALENAAVGLVAGGKSKLFTPMMLFVARKPENAETPSQTSQEATQ
B7: OPY1 (protein, UniProt P38271 1-328)
chain: MIAGATAPSSQHEILIASNLIKKPSTSQNKTPTAQSSSGNNGAADGAPQGYHHHHHHHRHLWWPRTTDHQYWCVLRKNQFAYYKTRDEREAISVIPRFDILNFKISELDGILTVYTPSKDLIFKFPRGQNEKVGMELMHNWKIALEKFLSSPSGNESVTTGSDYDEEEDDDDLIVVDEKAGPSSSKHSCSLTMDEQLSREDKEFYRMFDPRNAEHQVCSGILYTKVKKKKLFNRAKWQKFNVELTNTSFNLYSFKTGKLKKSIKLDKIIDCIELDNNSKMKNDDTNFALITFDERLSFKAANDQDMVDWIINFKSGILIRKKLKAENI
B8: PAL2 (protein, UniProt P38809 1-366)
chain: MNQTGRTIGGPQNGVNTVINPFRVSPSEDRVSSRDETPRNYNNPFLNEDDTRRAHNSSVSNSRQERLPSYEEAAGTPKQQAPYPKEKKRSSGSNSHQHNHHHHRRTSHGHRDKDKQKSKSRTKVKPPKNVDTIDKMDVTGLFGGSFHHDGPFDACTPQRNKNNKVAPVLAFPADGPNNTVGGRTSKKSTLDEVFGRETVDDDSETLNQLQDRAYLFNKANSSTTTLDAIKPNSKNITQFDSKMKTELVHGPITMGLGSTTFLDGAPASSAAIEQDVINHAQESRRKNSIARKKSLPSRRHLQVNNNNLKLVKTHSGHLEQKDVDDNRTSVPVTATQGSGHEDVVKKENTGNKLLRRVKSLKTSKKH
B9: RPT1 (protein, UniProt P33299 1-467)
chain: MPPKEDWEKYKAPLEDDDKKPDDDKIVPLTEGDIQVLKSYGAAPYAAKLKQTENDLKDIEARIKEKAGVKESDTGLAPSHLWDIMGDRQRLGEEHPLQVARCTKIIKGNGESDETTTDNNNSGNSNSNSNQQSTDADEDDEDAKYVINLKQIAKFVVGLGERVSPTDIEEGMRVGVDRSKYNIELPLPPRIDPSVTMMTVEEKPDVTYSDVGGCKDQIEKLREVVELPLLSPERFATLGIDPPKGILLYGPPGTGKTLCARAVANRTDATFIRVIGSELVQKYVGEGARMVRELFEMARTKKACIIFFDEIDAVGGARFDDGAGGDNEVQRTMLELITQLDGFDPRGNIKVMFATNRPNTLDPALLRPGRIDRKVEFSLPDLEGRANIFRIHSKSMSVERGIRWELISRLCPNSTGAELRSVCTEAGMFAIRARRKVATEKDFLKAVDKVISGYKKFSSTSRYMQYN
B10: RTK1 (protein, UniProt Q12100 1-620)
chain: MVKETPLHSSSSTSLSSLFRPTKLKNLSAKIFNGGGNQSYSKTDDVSRSSSRSSKKNTDSDQEDQIKYNKPNDRRSTIGKSPQGNGALSKESHVVASSTLTGISPTSAKKAPIDYSPSRPLPNNHNPVRTGHTVPHLPHSIHNPINYIHQGSKDAFHHPHPVRSTAHSNISTVSSAKSDTPSSNLSYQAHMHPVEILQKQIEDKHFMDSQASTPGSVELQHNSSSGSDDTSSRKKKSLRLTRFFKKIHNDYHDNHHHHHHHNRGSTPTKPKLNLNTNENIVESNGKALYETDNPVELLEKYGIPGRKLGEGASGSVSVVERTDGKLFACKMFRKPHLNNEGTNQSQLANYSKKVTTEFCIGSTLHHENIVETLDMLTEGDTYLLVMEYAPYDFFNLVMSNLMTQDEVNCYFKQLCHGVNYLHSMGLAHRDLKLDNCVVTKDGILKLIDFGSAVVFQYPYEDTIVKSHGIVGSDPYLAPELLKQTSYDPRVADVWSIAIIFYCMVLKRFPWKAPKKSFNSFRLFTEEPEDEDDIVRGPNKILRLLPRHSRTIIGRMLALEPKQRVLMNDVVKDDWLVSVPSCEVDPTSGDLVEKPKNHKHHLVTEEELNELTKQHGNKDSN

Target: T1, His6-Gis1 (yeast (S. cerevisiae))
Experiment: affinity purification with mass spectrometry; His6-Gis1 pre-bound to a Ni Sepharose 6 Fast Flow column; crude yeast extract (Δgis1 cells grown in air or under hypoxia, Δgis1Δhem1 cells at intermediate or high ALA) loaded, 4 °C, 2 h; eluted complexes separated by SDS-PAGE, bands excised, MS; only the target purified

Binder	binding
B1	binds
B2	binds
B3	binds
B4	binds
B5	binds
B6	binds
B7	binds
B8	binds
B9	binds
B10	binds
